These are yes or no findings as the source states them, for the method shown. Some binding calls cover weakened binding; strength is not graded here. One block for each binder: values may come before it.
Assays:
[1] = target: T1, purified recombinant C35 protein generated in E. coli (human) (UniProt Q9BRT3); assay: Western blot, hybridoma supernatant
T1 sequence: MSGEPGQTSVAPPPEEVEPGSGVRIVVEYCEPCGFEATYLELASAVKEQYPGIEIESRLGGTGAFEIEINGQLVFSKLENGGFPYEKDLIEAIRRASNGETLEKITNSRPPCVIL

[2] = target: T1, purified recombinant C35 protein generated in E. coli (human); assay: ELISA and Western blot
[3] = target: T1, purified recombinant C35 protein generated in E. coli (human); assay: Western blot, 100 ng recombinant C35 per lane, hybridoma supernatant
[4] = target: T1, purified recombinant C35 protein generated in E. coli (human); assay: ELISA, hybridoma supernatant on coated C35 protein, anti-mouse HRP
[5] = target: T2, C35 protein, bacterially synthesized (recombinant human C35 purified from E. coli) (human) (UniProt Q9BRT3); assay: ELISA screen of hybridoma supernatants on plates coated with C35 protein
T2 sequence: T1 sequence

[6] = target: T2, C35 protein, bacterially synthesized (recombinant human C35 purified from E. coli) (human); assay: Western blot of purified recombinant C35 protein

binding [5]: binds
binding [6]: binds
B2: monoclonal antibody of hybridoma clone 1B3 (antibody, mouse IgG1, V domains shown)
VH: EVQLQESGPSLVKPSQTLSLTCSVTGDSITSGYWNWIRKFPGNKLEYVGYISYSGGTYYNPSLKSRISITRDTSKNHYYLQLNSVTTEDTATYYCARGAYYGGAFFPYFDVWGAGTTVTVSS
VL: DVQITQSPSFLAASPGETITINCRASKYISKHLVWYQEKPGETKKLLIYSGSTLQSGLPSRFSGSGSGTDFTLTISSLEPEDFAMYYCQQHNEYPLTFGAGTKLELK

binding [5]: binds
binding [6]: binds
B3: monoclonal antibody of hybridoma clone 3E10 (antibody, V domains shown)
VH: B2 VH
VL: B2 VL

The remaining lines, values behind:

B1: 1B3 monoclonal antibody (antibody, mouse IgG1, V domains shown)
VH: B2 VH
VL: B2 VL
notes: Mouse IgG1, tested as hybridoma supernatant
binding [1]: binds
binding [2]: binds
binding [3]: binds
binding [4]: binds

B4: 3E10 monoclonal antibody (antibody, V domains shown)
VH: B2 VH
VL: B2 VL
binding [1]: binds
binding [2]: binds
binding [3]: binds
binding [4]: binds
